Assay results reported in the supplement of paper PMC8256030.
Where “and” joins values, the source holds several entries; their conditions need not be identical. Equal values may be shown once. The list shows a part of the results. Repeats in this data set agree poorly, so a single value says little.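 HEK293T cells were given each compound shortly before transfection with a reporter in which red mCherry is followed by the SARS-CoV-2 frameshift element and then GFP in the −1 frame, so GFP appears only after frameshifting.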

System: SARS-CoV-2 -1 PRF reporter mCherry-FSE-GFP(-1)
Experiment: percent effect, decrease of GFP/mCherry ratio (-1 PRF reporter) relative to controls; higher = stronger frameshift inhibition
Settings: 10 µM; 24 h; HEK293T

| SMILES | percent effect |
| --- | --- |
| C/C=C(/C)C(=O)O[C@H]1[C@H](OC(C)=O)[C@@]2(CO)C(CC1(C)C)C1=CCC3[C@@]4(C)CCC(O[C@@H]5O[C@H](C(=O)O)[C@@H](O[C@@H]6O[C@H](CO)[C@@H](O)[C@H](O)[C@H]6O)[C@H](O)[C@H]5O[C@@H]5O[C@H](CO)[C@@H](O)[C@H](O)[C@H]5O)[C@](C)(CO)C4CC[C@@]3(C)[C@]1(C)C[C@H]2O.C/C=C(\C)C(=O)O[C@H]1[C@H](OC(C)=O)[C@@]2(CO)C(CC1(C)C)C1=CCC3[C@@]4(C)CCC(O[C@@H]5O[C@H](C(=O)O)[C@@H](O[C@@H]6O[C@H](CO)[C@@H](O)[C@H](O)[C@H]6O)[C@H](O)[C@H]5O[C@@H]5O[C@H](CO)[C@@H](O)[C@H](O)[C@H]5O)[C@](C)(CO)C4CC[C@@]3(C)[C@]1(C)C[C@H]2O (stereo partly drawn) | 0.505% |
| CC1CC(OC(=O)C(O)c2ccccc2)CC(C)(C)C1 (stereo not drawn) [cyclandelate] | -3.66% |
| CC(C)[C@H](NC(=O)[C@H](CC(=O)O)NC(=O)[C@H](CCCCN)NC(=O)[C@@H](N)CCCN=C(N)N)C(=O)N[C@@H](Cc1ccc(O)cc1)C(=O)O [thymopentin] | -9.39% |
| CO/N=C(\C(=O)N[C@@H]1C(=O)N2C(C(=O)[O-])=C(C[n+]3ccn4ncccc43)CS[C@H]12)c1nsc(N)n1 [cefozopran] | -2% |
| CC1=CC(=O)NS(=O)(=O)O1 | -3.7% |
| CC(C)(C(=O)O)c1ccc(C(=O)CCCN2CCC(OC(c3ccccc3)c3ccccc3)CC2)cc1 [carebastine] | -1.32% |
| CCc1ccc(C(=O)C(C)CN2CCCCC2)cc1 (stereo not drawn) [eperisone] | 0.00764% |
| Cc1ncc(CSSCc2cnc(C)c(O)c2CO)c(CO)c1O [pyritinol] | -1.46% |
| CCC(C)(C)c1ccc(OCCCCCCN2CCN(c3ccc(C)c(Cl)c3)CC2)cc1 [teroxalene] | -12.8% |
| O=[N+]([O-])c1ccc(O)c2ncccc12 [nitroxoline] | -1.74% |
| O=C(Nc1ccc(O)cc1)c1ccccc1O [osalmid] | -2.12% |
| O=C1OC(CN2CCOCC2)CN1/N=C/c1ccc([N+](=O)[O-])o1 (stereo not drawn) [furaltadone] | -2.11% |
| C[N+](C)(C)CCOP(=O)(O)OC[C@H](O)CO [choline alfoscerate] | -2.48% |
| O=S1(=O)CCN(CN2CCS(=O)(=O)NC2)CN1 [taurolidine] | -1.95% |
| CN1CCC(=C2c3ccccc3CCc3sccc32)CC1 [pizotifen] | -0.45% |
| O=c1[nH]c2ccccc2n1CCCN1CCN(C(c2ccccc2)c2ccccc2)CC1 [oxatomide] | 1.44% |
| CCc1nn(CCCN2CCN(c3cccc(Cl)c3)CC2)c(=O)n1CCOc1ccccc1 [Nefazodone] | -8.97% |
| N[C@@H](CCC(=O)O)C(=O)O [glutamic acid] | -6.77% |
| N=C(N)N/N=C/c1c(Cl)cccc1Cl [Guanabenz] | -1.67% |
| CCC[C@@H]1C[C@@H](C(=O)N[C@@H]([C@H]2O[C@H](SC)[C@H](O)[C@@H](O)[C@H]2O)[C@H](C)Cl)N(C)C1 [Cleocin] | -1.77% and -0.819% |
| C=C1c2cccc(O)c2C(O)=C2C(=O)[C@]3(O)C(O)=C(C(N)=O)C(=O)[C@@H](N(C)C)[C@@H]3[C@@H](O)[C@H]12 | -8.67% |
| O=C(c1cc(Cc2n[nH]c(=O)c3ccccc23)ccc1F)N1CCN(C(=O)C2CC2)CC1 [Olaparib] | 0.0469% |
| CCN1CCC[C@H]1CNC(=O)c1c(OC)ccc(Br)c1OC [remoxipride] | 1.26% |
| C=C(NC(=O)c1csc(-c2nc3c(cc2O)-c2nc(cs2)C(=O)NC(C(C)O)C(=O)N/C(=C\C)c2nc(cs2)C(=O)NC2CC(O)C(=O)OCc4cccc5[nH]c(c(C)c45)C(=O)SCC(NC(=O)c4csc2n4)c2nc-3cs2)n1)C(N)=O (stereo not drawn) [nosiheptide] | -14.9% |
| O=C(O)COCCN1CCN(C(c2ccccc2)c2ccc(Cl)cc2)CC1 (stereo not drawn) [cetirizine] | -1.98% and -0.372% and 2.12% |
| CN(C)CCN(Cc1ccccc1)c1nc2ccccc2o1 [oxadimedine] | 1.13% |
| C=C(C)[C@@H]1CC[C@]2(C(=O)O)CC[C@]3(C)[C@H](CC[C@@H]4[C@@]5(C)CC[C@H](OC(=O)CC(C)(C)C(=O)O)C(C)(C)[C@@H]5CC[C@]43C)[C@@H]12 [bevirimat] | 2.28% |
| CCN1CCN(C(=O)N[C@@H](C(=O)N[C@@H]2C(=O)N3[C@@H]2SC(C)(C)[C@@H]3C(=O)O)c2ccccc2)C(=O)C1=O | -8.73% |

Molecules shown so far with a nitro group on carbon (2):

| SMILES | percent effect |
| --- | --- |
| O=[N+]([O-])c1ccc(O)c2ncccc12 [nitroxoline] | -1.74% |
| O=C1OC(CN2CCOCC2)CN1/N=C/c1ccc([N+](=O)[O-])o1 (stereo not drawn) [furaltadone] | -2.11% |
